Experimental data taken from patent US8293489B2, “Methods for detection of biological substances” (priority 2007, dated 2012).

Columns and labels:
Parameters in all cases: species or system human
CNTF = CNTF in plasma, urine, saliva and nasal mucus
endoglin = assay: Endoglin in plasma, urine, saliva and nasal mucus
[1] = 96 plate colorimetric ELISA comparison of biological substances in various bodily fluids
PlGF = PlGF in plasma, nasal mucus, saliva and urine
[2] = nasal mucus, range in parentheses

B1: CNTF (protein, UniProt P26441 1-200, looked up)
Ciliary neurotrophic factor: MAFTEHSPLTPHRRDLCSRSIWLARKIRSDLTALTESYVKHQGLNKNINLDSADGMPVASTDQWSELTEAERLQENLQAYRTFHVLLARLLEDQQVHFTPTEGDFHQAIHTLLLQVAAFAYQIEELMILLEYKIPRNEADGMPINVGDGGLFEKKLWGLKVLQELSQWTVRSIHDLRFISSHQTGIPARGSHYIANNKKM
- CNTF (CNTF; NASAL MUCUS): 0.003 ± 0.001 µg/mL
- CNTF (CNTF; PLASMA, (19) subjects): 0.004 ± 0.001 µg/mL
- CNTF (CNTF; SALIVA): 0.001 ± 0.001 µg/mL
- CNTF (CNTF; URINE): 0 µg/mL

B2: ENDOGLIN (protein, UniProt P17813 26-658, looked up)
Endoglin: ETVHCDLQPVGPERGEVTYTTSQVSKGCVAQAPNAILEVHVLFLEFPTGPSQLELTLQASKQNGTWPREVLLVLSVNSSVFLHLQALGIPLHLAYNSSLVTFQEPPGVNTTELPSFPKTQILEWAAERGPITSAAELNDPQSILLRLGQAQGSLSFCMLEASQDMGRTLEWRPRTPALVRGCHLEGVAGHKEAHILRVLPGHSAGPRTVTVKVELSCAPGDLDAVLILQGPPYVSWLIDANHNMQIWTTGEYSFKIFPEKNIRGFKLPDTPQGLLGEARMLNASIVASFVELPLASIVSLHASSCGGRLQTSPAPIQTTPPKDTCSPELLMSLIQTKCADDAMTLVLKKELVAHLKCTITGLTFWDPSCEAEDRGDKFVLRSAYSSCGMQVSASMISNEAVVNILSSSSPQRKKVHCLNMDSLSFQLGLYLSPHFLQASNTIEPGQQSFVQVRVSPSVSEFLLQLDSCHLDLGPEGGTVELIQGRAAKGNCVSLLSPSPEGDPRFSFLLHFYTVPIPKTGTLSCTVALRPKTGSQDQEVHRTVFMRLNIISPDLSGCTSKGLVLPAVLGITFGAFLIGALLTAALWYIYSHTRSPSKREPVVAVAAPASSESSSTNHSIGSTQSTPCSTSSMA
- ENDOGLIN (endoglin; NASAL MUCUS): 0.2 ± 0.1 mg/mL
- ENDOGLIN/PROTEIN (endoglin; NASAL MUCUS): 0.07 ± 0.01
- ENDOGLIN/PROTEIN (endoglin; PLASMA): 0.38 ± 0.1
- ENDOGLIN (endoglin; PLASMA, (33) subjects): 2.7 ± 0.1^†a mg/ml
- ENDOGLIN (endoglin; SALIVA): 0 mg/mL
- ENDOGLIN (endoglin; URINE): 0 mg/mL
- BLOOD CONCENTRATION (endoglin; blood, mean ± spread): 12.7 ± 0.2 ng/mL
- BLOOD CONCENTRATION (range) (endoglin; blood, range in parentheses): (1.1-6.0) ng/ml
- NASAL MUCUS CONCENTRATION (endoglin; nasal mucus, mean ± spread): 0.8 ± 0.5 ng/mL
- NASAL MUCUS CONCENTRATION (range) (endoglin; [2]): (0.02-3.0) ng/ml

B3: Tumor Necrosis Factor β (TNF β) (protein, UniProt P01374 35-205, looked up)
Lymphotoxin-alpha: LPGVGLTPSAAQTARQHPKMHLAHSTLKPAAHLIGDPSKQNSLLWRANTDRAFLQDGFSLSNNSLLVPTSGIYFVYSQVVFSGKAYSPKATSSPLYLAHEVQLFSSQYPFHVPLLSSQKMVYPGLQEPWLHSMYHGAAFQLTQGDQLSTHTDGIPHLVLSPSTVFFGAFAL
- concentration in NASAL MUCUS [1]: 0 pg/mL
- concentration in PLASMA [1]: 0 pg/mL
- concentration in SALIVA [1]: 0 pg/mL
- concentration in URINE [1]: 0 pg/mL

B4: Brain Derived Neurotrophic Factor (BDNF) (protein, UniProt P23560 19-247, looked up)
Neurotrophic factor BDNF …: APMKEANIRGQGGLAYPGVRTHGTLESVNGPKAGSRGLTSLADTFEHVIEELLDEDQKVRPNEENNKDADLYTSRVMLSSQVPLEPPLLFLLEEYKNYLDAANMSMRVRRHSDPARRGELSVCDSISEWVTAADKKTAVDMSGGTVTVLEKVPVSKGQLKQYFYETKCNPMGYTKEGCRGIDKRHWNSQCRTTQSYVRALTMDSKKRIGWRFIRIDTSCVCTLTIKRGR
- concentration in NASAL MUCUS [1]: 8000 ± 8000 pg/mL
- concentration in PLASMA [1]: 3.676e+06 ± 529000 pg/mL
- concentration in SALIVA [1]: 0 pg/mL
- concentration in URINE [1]: 0 pg/mL

B5: Vascular Endothelial Growth Factor C (VEGF-C) (protein, UniProt P49767 112-227, looked up)
Vascular endothelial growth …: AHYNTEILKSIDNEWRKTQCMPREVCIDVGKEFGVATNTFFKPPCVSVYRCGGCCNSEGLQCMNTSTSYLSKTLFEITVPLSQGPKPVTISFANHTSCRCMSKLDVYRQVHSIIRR
- concentration in NASAL MUCUS [1]: 3449 ± 536 pg/mL
- concentration in PLASMA [1]: 336.8 ± 52.1 pg/mL
- concentration in SALIVA [1]: 379.8 ± 57.7 pg/mL

B6: … LIKE GROWTH FACTOR (PlGF) (protein, UniProt P49763 19-221, looked up)
Placenta growth factor: LPAVPPQQWALSAGNGSSEVEVVPFQEVWGRSYCRALERLVDVVSEYPSEVEHMFSPSCVSLLRCTGCCGDENLHCVPVETANVTMQLLKIRSGDRPSYVELTFSQHVRCECRHSPGRQSPDMPGDFRADAPSFLPPRRSLPMLFRMEWGCALTGSQSAVWPSSPVPEEIPRMHPGRNGKKQQRKPLREKMKPERCGDAVPRR
- BLOOD CONCENTRATION (PlGF; blood, mean ± spread): 21 ± 4 pg/mL
- BLOOD CONCENTRATION (range) (PlGF; blood, range in parentheses): (0-79) pg/ml
- NASAL MUCUS CONCENTRATION (PlGF; nasal mucus, mean ± spread): 372 ± 17 pg/mL
- NASAL MUCUS CONCENTRATION (range) (PlGF; [2]): (32-1402) pg/ml
